# Data published in the supplement of paper PMC8728848.
# The other results are listed elsewhere or left out.
# What was measured:
# Experiment in all cases: glycan array binding signal (z-score within array); higher = stronger binding
# Details in all cases: glycan notation: IUPAC condensed, linker removed
# [1] = target: GlcNAc(b1-3)[GlcNAc(b1-6)]GalNAc
# How it was run: (§1)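 From the Consortium for Functional Glycomics database, 3228 arrays were curated, keeping only those whose protein sequence was available. Binding is given as a within-array Z-score averaged across arrays sharing a protein sequence and across linkers. Negative Z-scores can be read as non-binding.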
# [2] = target: GlcNAc(b1-4)Gal(b1-4)GlcNAc
# How it was run: as §1
# GlcNAc(b1-4)GlcNAc = target: GlcNAc(b1-4)GlcNAc
# How it was run: as §1
# [3] = target: GlcNAc(b1-4)GlcNAc(b1-4)GlcNAc
# How it was run: as §1
# [4] = target: GlcNAc(b1-4)GlcNAc(b1-4)GlcNAc(b1-4)GlcNAc(b1-4)GlcNAc
# How it was run: as §1
# [5] = target: GlcNAc(b1-4)GlcNAc(b1-4)GlcNAc(b1-4)GlcNAc(b1-4)GlcNAc(b1-4)GlcNAc
# How it was run: as §1
# [6] = target: GlcNAc(b1-4)[GlcNAc(b1-6)]GalNAc
# How it was run: as §1
# [7] = target: GlcNAc(b1-6)Gal(b1-4)GlcNAc
# How it was run: as §1
# GlcNAc(b1-6)GalNAc = target: GlcNAc(b1-6)GalNAc
# How it was run: as §1
# GlcNAc3Prop(b1-4)GlcNAc = target: GlcNAc3Prop(b1-4)GlcNAc
# How it was run: as §1
# [8] = target: GlcNAc6S(b1-3)Gal(b1-4)GlcNAc
# How it was run: as §1
# Kdn(a2-3)Gal(b1-3)GalNAc = target: Kdn(a2-3)Gal(b1-3)GalNAc
# How it was run: as §1
# Kdn(a2-3)Gal(b1-3)GlcNAc = target: Kdn(a2-3)Gal(b1-3)GlcNAc
# How it was run: as §1
# Kdn(a2-3)Gal(b1-4)Glc = target: Kdn(a2-3)Gal(b1-4)Glc
# How it was run: as §1
# Kdn(a2-3)Gal(b1-4)GlcNAc = target: Kdn(a2-3)Gal(b1-4)GlcNAc
# How it was run: as §1
# [9] = target: Kdn(a2-3)Gal(b1-4)[Fuc(a1-3)]GlcNAc
# How it was run: as §1
# Kdn(a2-6)Gal(b1-4)GlcNAc = target: Kdn(a2-6)Gal(b1-4)GlcNAc
# How it was run: as §1
# [10] = target: Man(a1-2)Man(a1-2)Man(a1-3)Man
# How it was run: as §1
# [11] = target: Man(a1-2)Man(a1-2)Man(a1-6)[Man(a1-3)]Man
# How it was run: as §1
# Man(a1-2)Man(a1-3)Man = target: Man(a1-2)Man(a1-3)Man
# How it was run: as §1
# [12] = target: Man(a1-2)Man(a1-3)[Man(a1-2)Man(a1-6)]Man
# How it was run: as §1
# [13] = target: Man(a1-2)Man(a1-3)[Man(a1-2)Man(a1-6)]Man(a1-6)[Man(a1-2)Man(a1-2)Man(a1-3)]Man
# How it was run: as §1
# [14] = target: Man(a1-2)Man(a1-3)[Man(a1-2)Man(a1-6)]Man(a1-6)[Man(a1-2)Man(a1-2)Man(a1-3)]Man(b1-4)GlcNAc(b1-4)GlcNAc
# How it was run: as §1
# [15] = target: Man(a1-2)Man(a1-3)[Man(a1-6)]Man(a1-6)[Man(a1-2)Man(a1-3)]Man(b1-4)GlcNAc(b1-4)GlcNAc
# How it was run: as §1
# [16] = target: Man(a1-2)Man(a1-6)[Man(a1-3)]Man(a1-6)[Man(a1-2)Man(a1-2)Man(a1-3)]Man
# How it was run: as §1
# [17] = target: Man(a1-2)Man(a1-6)[Man(a1-3)]Man(a1-6)[Man(a1-2)Man(a1-2)Man(a1-3)]Man(b1-4)GlcNAc(b1-4)GlcNAc
# How it was run: as §1
# Man(a1-3)[Man(a1-6)]Man = target: Man(a1-3)[Man(a1-6)]Man
# How it was run: as §1
# [18] = target: Man(a1-3)[Man(a1-6)]Man(a1-6)[Man(a1-2)Man(a1-3)]Man(b1-4)GlcNAc(b1-4)GlcNAc
# How it was run: as §1
# [19] = target: Man(a1-3)[Man(a1-6)]Man(a1-6)[Man(a1-3)]Man
# How it was run: as §1
# [20] = target: Man(a1-3)[Man(a1-6)]Man(a1-6)[Man(a1-3)]Man(b1-4)GlcNAc(b1-4)GlcNAc
# How it was run: as §1
# [21] = target: Man(a1-3)[Man(a1-6)]Man(b1-4)GlcNAc(b1-4)GlcNAc
# How it was run: as §1
# Man(a1-6)Man = target: Man(a1-6)Man
# How it was run: as §1
# Man(b1-4)GlcNAc = target: Man(b1-4)GlcNAc
# How it was run: as §1
# Neu5Ac(a2-3)Gal = target: Neu5Ac(a2-3)Gal
# How it was run: as §1
# [22] = target: Neu5Ac(a2-3)Gal(b1-3)GalNAc
# How it was run: as §1
# [23] = target: Neu5Ac(a2-3)Gal(b1-3)GalNAc(b1-3)Gal(a1-4)Gal(b1-4)Glc
# How it was run: as §1
# [24] = target: Neu5Ac(a2-3)Gal(b1-3)GalNAc(b1-4)[Neu5Ac(a2-3)]Gal(b1-4)Glc
# How it was run: as §1
# [25] = target: Neu5Ac(a2-3)Gal(b1-3)GalNAc(b1-4)[Neu5Ac(a2-8)Neu5Ac(a2-3)]Gal(b1-4)Glc
# How it was run: as §1
binder,measurement,setting,value
"CD72 ectodomain (Homo sapiens), P21854 (protein) RYLQVSQQLQQTNRVLEVTNSSLRQQLRLKITQLGQSAEDLQGSRRELAQSQEALQVEQRAHQAAEGQLQACQADRQKTKETLQSEEQQRRALEQKLSNMENRLKPFFTCGSADTCCPSGWIMHQKSCFYISLTSKNWQESQKQCETLSSKLATFSEIYPQSHSYYFLNSLLPNGGSGNSYWTGLSSNKDWKLTDDTQRTRTYAQSSKCNKVHKTWSWWTLESESCRSSLPYICEMTAFRFPD",glycan array binding signal (z-score),[1],1.43
same,glycan array binding signal (z-score),[2],0.822
same,glycan array binding signal (z-score),GlcNAc(b1-4)GlcNAc,-1.49
same,glycan array binding signal (z-score),[3],0.82
same,glycan array binding signal (z-score),[4],-1.05
same,glycan array binding signal (z-score),[5],-1.39
same,glycan array binding signal (z-score),[6],-0.218
same,glycan array binding signal (z-score),[7],-2.03
same,glycan array binding signal (z-score),GlcNAc(b1-6)GalNAc,-1.62
same,glycan array binding signal (z-score),GlcNAc3Prop(b1-4)GlcNAc,1.19
same,glycan array binding signal (z-score),[8],1.18
same,glycan array binding signal (z-score),Kdn(a2-3)Gal(b1-3)GalNAc,0.274
same,glycan array binding signal (z-score),Kdn(a2-3)Gal(b1-3)GlcNAc,-1.25
same,glycan array binding signal (z-score),Kdn(a2-3)Gal(b1-4)Glc,0.178
same,glycan array binding signal (z-score),Kdn(a2-3)Gal(b1-4)GlcNAc,0.726
same,glycan array binding signal (z-score),[9],0.379
same,glycan array binding signal (z-score),Kdn(a2-6)Gal(b1-4)GlcNAc,-0.951
same,glycan array binding signal (z-score),[10],-0.412
same,glycan array binding signal (z-score),[11],1.23
same,glycan array binding signal (z-score),Man(a1-2)Man(a1-3)Man,0.192
same,glycan array binding signal (z-score),[12],-0.653
same,glycan array binding signal (z-score),[13],1.27
same,glycan array binding signal (z-score),[14],-0.865
same,glycan array binding signal (z-score),[15],1.27
same,glycan array binding signal (z-score),[16],-0.32
same,glycan array binding signal (z-score),[17],0.372
same,glycan array binding signal (z-score),Man(a1-3)[Man(a1-6)]Man,-0.524
same,glycan array binding signal (z-score),[18],-2.02
same,glycan array binding signal (z-score),[19],0.405
same,glycan array binding signal (z-score),[20],0.977
same,glycan array binding signal (z-score),[21],-1.2
same,glycan array binding signal (z-score),Man(a1-6)Man,-0.096
same,glycan array binding signal (z-score),Man(b1-4)GlcNAc,2.32
same,glycan array binding signal (z-score),Neu5Ac(a2-3)Gal,-0.584
same,glycan array binding signal (z-score),[22],-0.308
same,glycan array binding signal (z-score),[23],0.115
same,glycan array binding signal (z-score),[24],-0.087
same,glycan array binding signal (z-score),[25],-0.247

# Rewritten with bars between the fields: entries from further up
binder | measurement | setting | value
CD72 ectodomain (Homo sapiens), P21854 (protein) RYLQVSQQLQQTNRVLEVTNSSLRQQLRLKITQLGQSAEDLQGSRRELAQSQEALQVEQRAHQAAEGQLQACQADRQKTKETLQSEEQQRRALEQKLSNMENRLKPFFTCGSADTCCPSGWIMHQKSCFYISLTSKNWQESQKQCETLSSKLATFSEIYPQSHSYYFLNSLLPNGGSGNSYWTGLSSNKDWKLTDDTQRTRTYAQSSKCNKVHKTWSWWTLESESCRSSLPYICEMTAFRFPD | glycan array binding signal (z-score) | GlcNAc(b1-6)GalNAc | -1.62
same | glycan array binding signal (z-score) | GlcNAc3Prop(b1-4)GlcNAc | 1.19
